The exact form of at least one protein or probe is not confirmed.

Amino acid sequences for entries named in this document (tags omitted).
UniProt A0A5J6CYG6, entry or part of it: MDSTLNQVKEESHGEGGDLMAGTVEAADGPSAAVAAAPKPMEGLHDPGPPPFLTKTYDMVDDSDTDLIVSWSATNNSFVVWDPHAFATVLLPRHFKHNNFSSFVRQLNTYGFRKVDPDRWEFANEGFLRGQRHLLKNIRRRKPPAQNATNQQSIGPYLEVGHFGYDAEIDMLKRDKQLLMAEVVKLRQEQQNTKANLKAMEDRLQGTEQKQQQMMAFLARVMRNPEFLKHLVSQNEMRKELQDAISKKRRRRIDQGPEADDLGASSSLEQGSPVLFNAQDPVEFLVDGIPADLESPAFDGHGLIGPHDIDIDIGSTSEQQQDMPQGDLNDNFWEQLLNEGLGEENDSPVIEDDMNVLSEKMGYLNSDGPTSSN

For this data set, the target named is HSF17 (Zea mays) (UniProt A0A5J6CYG6). The experiment in a line: EMSA. To be noted: Native-PAGE EMSA, biotin probe, LightShift chemiluminescent kit; pH and temperature not stated; recombinant protein; protein details: His (pET32a, vector-encoded fusion not detailed); label: 5' biotin.

Take “CTTATCTGATTCCAGTTCCACAAGTTTCTCTCTGATTCGAATCCC (double strand) [pDE18-ACAAGTTTCT probe]”: the binding result is listed as “binds”.

For the origin of these results see publication PMC11207566.
